PubChem BioAssay AID1224828, NIAID – 2016
The whole screen tested about 17,000 reagents; this is an unselected part. 762 of all reagents (4.5%) were called active. 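Active calls include both raised and lowered p65 entry, mostly lowered; wells with fewer than 50 cells lack a z-score.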 Raw values are not corrected between plates. No sequences are given here.

Assay: 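Knock-downs that increase or decrease LPS-induced p65 nuclear translocation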 (primary screen)
Cell system: mouse RAW264.7 G9 macrophage reporter cells (GFP-p65, Tnf promoter-mCherry)
Reagents: siRNA pool against mouse genes, 100 nM
Time to read-out: 2 days siRNA transfection, then 40 min LPS before fixation
Conditions: LPS (Salmonella minnesota R595) at 10 ng/ml
Read-out: 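Microscopy ratio of nuclear to perinuclear-ring GFP-p65 signal, scaled to the plate median; gene score is the average of two replicate robust z-scores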
Reading the numbers: p65 translocation robust z-score: higher = more nuclear NF-kappaB p65 after LPS than the plate median; nuclear/cytoplasmic p65 ratio: higher = more nuclear NF-kappaB p65
Hit rule: 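Called active when z exceeds 3.3 or falls under -1.56 (median of Tlr4 controls), giving activity score of at least 50; no calls for control wells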
Meaning of the calls: active = hit (p65 shift raised or lowered); inactive = no clear change

With Or8k32, how do the results read?
p65 translocation robust z-score: 0.33; nuclear/cytoplasmic p65 ratio, rep 1: 1.71; nuclear/cytoplasmic p65 ratio, rep 2: 1.63; low cell count flag: enough cells to score; call: inactive

For Spata32, what was measured?
nuclear/cytoplasmic p65 ratio, rep 1: 1.56; nuclear/cytoplasmic p65 ratio, rep 2: 1.52; low cell count flag: fewer than 50 cells per well; well left out of scoring; call: inactive

With Prss37, what was measured?
p65 translocation robust z-score: -0.2; nuclear/cytoplasmic p65 ratio, rep 1: 1.38; nuclear/cytoplasmic p65 ratio, rep 2: 1.38; low cell count flag: enough cells to score; call: inactive

For Mcoln3, how do the results read?
p65 translocation robust z-score: -1.13; nuclear/cytoplasmic p65 ratio, rep 1: 1.27; nuclear/cytoplasmic p65 ratio, rep 2: 1.22; low cell count flag: enough cells to score; call: inactive

With Npff, how do the results read?
p65 translocation robust z-score: 0.06; nuclear/cytoplasmic p65 ratio, rep 1: 1.74; nuclear/cytoplasmic p65 ratio, rep 2: 1.53; low cell count flag: enough cells to score; call: inactive

With Zfp354c, what does the deposit list?
p65 translocation robust z-score: 0.61; nuclear/cytoplasmic p65 ratio, rep 1: 1.53; nuclear/cytoplasmic p65 ratio, rep 2: 1.29; low cell count flag: enough cells to score; call: inactive

With Cd200r2, how do the results read?
p65 translocation robust z-score: 1.22; nuclear/cytoplasmic p65 ratio, rep 1: 1.93; nuclear/cytoplasmic p65 ratio, rep 2: 1.69; low cell count flag: enough cells to score; call: inactive

For Eif4ebp1, what was measured?
p65 translocation robust z-score: -1.57; nuclear/cytoplasmic p65 ratio, rep 1: 1.26; nuclear/cytoplasmic p65 ratio, rep 2: 1.16; low cell count flag: enough cells to score; call: active

What is on record for Clec4n?
p65 translocation robust z-score: -0.66; nuclear/cytoplasmic p65 ratio, rep 1: 1.49; nuclear/cytoplasmic p65 ratio, rep 2: 1.68; low cell count flag: enough cells to score; call: inactive

What did the screen give for Dmbt1?
p65 translocation robust z-score: 1.72; nuclear/cytoplasmic p65 ratio, rep 1: 1.72; nuclear/cytoplasmic p65 ratio, rep 2: 1.56; low cell count flag: enough cells to score; call: inactive

For Or1j21, how do the results read?
nuclear/cytoplasmic p65 ratio, rep 1: 1.14; nuclear/cytoplasmic p65 ratio, rep 2: 1.14; low cell count flag: fewer than 50 cells per well; well left out of scoring; call: inactive

How did the screen score Dnase1l1?
nuclear/cytoplasmic p65 ratio, rep 1: 1.15; nuclear/cytoplasmic p65 ratio, rep 2: 1.42; low cell count flag: fewer than 50 cells per well; well left out of scoring; call: inactive

For Pafah2, what was measured?
p65 translocation robust z-score: -0.48; nuclear/cytoplasmic p65 ratio, rep 1: 1.35; nuclear/cytoplasmic p65 ratio, rep 2: 1.38; low cell count flag: enough cells to score; call: inactive

For Mtcp1, how do the results read?
p65 translocation robust z-score: 0.03; nuclear/cytoplasmic p65 ratio, rep 1: 1.42; nuclear/cytoplasmic p65 ratio, rep 2: 1.37; low cell count flag: enough cells to score; call: inactive

What is on record for Elavl4?
p65 translocation robust z-score: -0.95; nuclear/cytoplasmic p65 ratio, rep 1: 1.32; nuclear/cytoplasmic p65 ratio, rep 2: 1.26; low cell count flag: enough cells to score; call: inactive

With Chac2, what does the deposit list?
p65 translocation robust z-score: 1.38; nuclear/cytoplasmic p65 ratio, rep 1: 1.47; nuclear/cytoplasmic p65 ratio, rep 2: 1.76; low cell count flag: enough cells to score; call: inactive

What did the screen give for Phka2?
p65 translocation robust z-score: -0.3; nuclear/cytoplasmic p65 ratio, rep 1: 1.79; nuclear/cytoplasmic p65 ratio, rep 2: 1.22; low cell count flag: enough cells to score; call: inactive

With Ciapin1, how do the results read?
nuclear/cytoplasmic p65 ratio, rep 1: 1.28; nuclear/cytoplasmic p65 ratio, rep 2: 1.7; low cell count flag: fewer than 50 cells per well; well left out of scoring; call: inactive

Which result is listed for Aff4?
p65 translocation robust z-score: -0.04; nuclear/cytoplasmic p65 ratio, rep 1: 1.39; nuclear/cytoplasmic p65 ratio, rep 2: 1.45; low cell count flag: enough cells to score; call: inactive

For Sesn2, how do the results read?
nuclear/cytoplasmic p65 ratio, rep 1: 1.37; nuclear/cytoplasmic p65 ratio, rep 2: 1.36; low cell count flag: fewer than 50 cells per well; well left out of scoring; call: inactive

What did the screen give for Vip?
p65 translocation robust z-score: -0.89; nuclear/cytoplasmic p65 ratio, rep 1: 1.27; nuclear/cytoplasmic p65 ratio, rep 2: 1.46; low cell count flag: enough cells to score; call: inactive

Hits (from the list above):
Eif4ebp1 → p65 translocation robust z-score = -1.57; nuclear/cytoplasmic p65 ratio, rep 1 = 1.26; nuclear/cytoplasmic p65 ratio, rep 2 = 1.16; low cell count flag = enough cells to score; call = active
